Assay [1] addresses Myc-tagged AGO2 K355R (UniProt Q9UKV8). As to the kind of experiment: co-IP; Myc-AGO2-WT or mutants transfected individually into 293T cells; IP with Myc antibody, endogenous DICER immunoblotted with DICER antibody (Figure S6). For orientation: In western blotting, separated proteins are transferred to a membrane and probed.
Assay [2] deals with Myc-tagged AGO2 (Argonaute2), wild type (UniProt Q9UKV8). Described as above.
Assay [3] concerns the target Myc-tagged AGO2-3KR (K355R, K493R, K720R) (UniProt Q9UKV8). The assay is described as above.
Assay [4] deals with Myc-tagged AGO2 K720R (UniProt Q9UKV8). The assay is described as above.
The target in assay [5] is Myc-tagged AGO2 K493R (UniProt Q9UKV8). The assay is described as above.
For assay [6], the target named is Myc-tagged AGO2 (Argonaute2), wild type (UniProt Q9UKV8). The assay can be described thus: co-IP; two tagged proteins co-transfected into 293T cells; lysis in RIPA buffer (50 mM Tris-HCl pH7.4, 150 mM NaCl, 1% NP-40); IP with anti-Myc or anti-Flag antibody and protein A/G-agarose at 4 °C overnight, Western blotting.
The target of assay [7] is T1, Flag-tagged HDAC7 (UniProt Q8WUI4).
T1 sequence: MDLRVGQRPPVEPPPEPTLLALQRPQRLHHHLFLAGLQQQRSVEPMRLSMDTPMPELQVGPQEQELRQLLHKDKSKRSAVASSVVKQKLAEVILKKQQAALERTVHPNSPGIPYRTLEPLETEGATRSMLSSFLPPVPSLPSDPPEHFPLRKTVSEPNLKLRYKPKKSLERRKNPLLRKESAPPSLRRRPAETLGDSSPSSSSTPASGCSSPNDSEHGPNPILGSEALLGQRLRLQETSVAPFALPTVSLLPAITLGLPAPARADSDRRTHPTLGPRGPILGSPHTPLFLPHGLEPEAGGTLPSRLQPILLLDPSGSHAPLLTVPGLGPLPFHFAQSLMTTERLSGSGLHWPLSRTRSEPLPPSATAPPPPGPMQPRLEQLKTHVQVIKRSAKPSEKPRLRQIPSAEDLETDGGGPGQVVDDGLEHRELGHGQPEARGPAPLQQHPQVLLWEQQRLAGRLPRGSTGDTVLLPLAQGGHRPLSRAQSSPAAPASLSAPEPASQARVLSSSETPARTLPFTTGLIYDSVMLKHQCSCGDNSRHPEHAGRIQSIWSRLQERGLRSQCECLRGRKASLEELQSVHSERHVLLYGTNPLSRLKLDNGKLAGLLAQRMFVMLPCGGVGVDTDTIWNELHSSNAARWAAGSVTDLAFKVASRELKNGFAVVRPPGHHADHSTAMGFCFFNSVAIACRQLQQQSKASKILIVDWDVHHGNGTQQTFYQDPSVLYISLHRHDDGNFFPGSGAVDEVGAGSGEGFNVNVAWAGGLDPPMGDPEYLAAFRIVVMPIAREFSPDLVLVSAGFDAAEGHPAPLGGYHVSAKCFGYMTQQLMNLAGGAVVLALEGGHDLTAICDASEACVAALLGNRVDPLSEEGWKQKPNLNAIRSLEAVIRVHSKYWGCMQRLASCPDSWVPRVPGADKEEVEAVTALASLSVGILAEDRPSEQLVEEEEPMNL
The description is as above.

Amino acid sequences for entries named in this document (tags omitted). A change or cut given only in a name is not applied to a line headed by its entry.
UniProt Q9UKV8: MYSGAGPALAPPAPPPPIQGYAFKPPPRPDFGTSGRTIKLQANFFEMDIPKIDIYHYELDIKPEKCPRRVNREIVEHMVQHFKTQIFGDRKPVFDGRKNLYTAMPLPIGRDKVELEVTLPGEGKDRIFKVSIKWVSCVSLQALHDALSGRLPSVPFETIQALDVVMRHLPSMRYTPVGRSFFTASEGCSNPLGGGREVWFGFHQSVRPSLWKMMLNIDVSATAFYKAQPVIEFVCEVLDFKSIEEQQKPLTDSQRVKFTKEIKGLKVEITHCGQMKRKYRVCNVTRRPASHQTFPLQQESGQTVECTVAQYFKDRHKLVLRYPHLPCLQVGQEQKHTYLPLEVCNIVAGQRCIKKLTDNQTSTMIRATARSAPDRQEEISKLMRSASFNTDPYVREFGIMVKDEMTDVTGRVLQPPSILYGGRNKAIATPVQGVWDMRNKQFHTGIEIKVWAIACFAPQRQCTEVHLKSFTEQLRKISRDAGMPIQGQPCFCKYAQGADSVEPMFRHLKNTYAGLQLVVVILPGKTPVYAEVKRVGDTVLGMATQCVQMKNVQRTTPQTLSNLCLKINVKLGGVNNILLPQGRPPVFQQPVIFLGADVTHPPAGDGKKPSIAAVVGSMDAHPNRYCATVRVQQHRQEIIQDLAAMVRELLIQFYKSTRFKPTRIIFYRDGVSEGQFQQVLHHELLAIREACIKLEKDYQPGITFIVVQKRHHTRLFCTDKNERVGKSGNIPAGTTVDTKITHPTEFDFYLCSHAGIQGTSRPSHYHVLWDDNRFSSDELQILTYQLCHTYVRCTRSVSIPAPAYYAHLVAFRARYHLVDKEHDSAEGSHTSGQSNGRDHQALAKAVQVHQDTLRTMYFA
UniProt Q9UPY3: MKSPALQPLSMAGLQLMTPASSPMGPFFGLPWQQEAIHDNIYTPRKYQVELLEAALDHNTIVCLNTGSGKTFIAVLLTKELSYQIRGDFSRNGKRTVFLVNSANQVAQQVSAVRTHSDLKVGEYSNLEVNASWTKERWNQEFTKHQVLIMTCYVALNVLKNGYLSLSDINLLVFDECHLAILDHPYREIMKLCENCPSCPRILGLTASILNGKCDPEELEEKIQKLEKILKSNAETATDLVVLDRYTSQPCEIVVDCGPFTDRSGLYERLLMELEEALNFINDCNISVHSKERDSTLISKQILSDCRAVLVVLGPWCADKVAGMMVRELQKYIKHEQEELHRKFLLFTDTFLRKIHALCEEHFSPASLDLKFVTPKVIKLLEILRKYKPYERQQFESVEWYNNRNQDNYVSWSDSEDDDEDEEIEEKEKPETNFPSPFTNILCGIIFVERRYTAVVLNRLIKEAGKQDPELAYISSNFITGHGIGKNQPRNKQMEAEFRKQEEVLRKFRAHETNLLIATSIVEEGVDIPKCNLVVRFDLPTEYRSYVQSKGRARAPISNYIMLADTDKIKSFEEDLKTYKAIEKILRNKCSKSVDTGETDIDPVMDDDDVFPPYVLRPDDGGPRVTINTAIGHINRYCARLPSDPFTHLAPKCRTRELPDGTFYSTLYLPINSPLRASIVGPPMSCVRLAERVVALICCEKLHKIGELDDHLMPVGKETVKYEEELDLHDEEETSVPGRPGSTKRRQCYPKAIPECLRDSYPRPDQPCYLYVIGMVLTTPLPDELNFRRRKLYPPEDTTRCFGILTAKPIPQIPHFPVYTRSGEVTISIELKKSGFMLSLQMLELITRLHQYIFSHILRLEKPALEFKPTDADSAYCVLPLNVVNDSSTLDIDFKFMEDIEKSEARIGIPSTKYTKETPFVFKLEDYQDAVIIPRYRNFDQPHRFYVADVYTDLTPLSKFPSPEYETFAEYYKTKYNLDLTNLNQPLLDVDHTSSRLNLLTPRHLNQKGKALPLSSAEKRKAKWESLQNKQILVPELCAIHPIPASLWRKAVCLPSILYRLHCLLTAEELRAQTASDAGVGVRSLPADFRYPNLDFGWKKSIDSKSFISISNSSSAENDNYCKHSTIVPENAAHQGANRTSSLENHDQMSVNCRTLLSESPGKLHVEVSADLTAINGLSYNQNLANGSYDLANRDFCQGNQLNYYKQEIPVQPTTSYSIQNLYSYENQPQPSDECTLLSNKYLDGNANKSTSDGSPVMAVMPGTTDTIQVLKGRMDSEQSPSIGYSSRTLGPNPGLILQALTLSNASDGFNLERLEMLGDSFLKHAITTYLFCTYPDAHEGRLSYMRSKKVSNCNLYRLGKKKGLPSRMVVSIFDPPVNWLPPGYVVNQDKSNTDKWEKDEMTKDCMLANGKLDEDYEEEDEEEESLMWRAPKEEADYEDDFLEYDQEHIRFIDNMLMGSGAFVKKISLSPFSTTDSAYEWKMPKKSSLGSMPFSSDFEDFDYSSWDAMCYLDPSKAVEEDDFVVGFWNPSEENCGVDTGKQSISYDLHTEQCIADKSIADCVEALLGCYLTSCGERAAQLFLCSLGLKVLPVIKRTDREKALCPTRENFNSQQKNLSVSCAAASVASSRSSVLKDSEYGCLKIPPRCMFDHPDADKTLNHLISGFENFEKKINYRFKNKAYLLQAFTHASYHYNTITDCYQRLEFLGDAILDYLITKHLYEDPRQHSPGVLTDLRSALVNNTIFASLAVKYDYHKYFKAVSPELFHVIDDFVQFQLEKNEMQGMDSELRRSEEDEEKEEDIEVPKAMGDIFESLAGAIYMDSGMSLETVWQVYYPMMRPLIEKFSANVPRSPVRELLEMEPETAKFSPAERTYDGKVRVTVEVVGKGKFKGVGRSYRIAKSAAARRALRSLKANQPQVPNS
UniProt Q92793: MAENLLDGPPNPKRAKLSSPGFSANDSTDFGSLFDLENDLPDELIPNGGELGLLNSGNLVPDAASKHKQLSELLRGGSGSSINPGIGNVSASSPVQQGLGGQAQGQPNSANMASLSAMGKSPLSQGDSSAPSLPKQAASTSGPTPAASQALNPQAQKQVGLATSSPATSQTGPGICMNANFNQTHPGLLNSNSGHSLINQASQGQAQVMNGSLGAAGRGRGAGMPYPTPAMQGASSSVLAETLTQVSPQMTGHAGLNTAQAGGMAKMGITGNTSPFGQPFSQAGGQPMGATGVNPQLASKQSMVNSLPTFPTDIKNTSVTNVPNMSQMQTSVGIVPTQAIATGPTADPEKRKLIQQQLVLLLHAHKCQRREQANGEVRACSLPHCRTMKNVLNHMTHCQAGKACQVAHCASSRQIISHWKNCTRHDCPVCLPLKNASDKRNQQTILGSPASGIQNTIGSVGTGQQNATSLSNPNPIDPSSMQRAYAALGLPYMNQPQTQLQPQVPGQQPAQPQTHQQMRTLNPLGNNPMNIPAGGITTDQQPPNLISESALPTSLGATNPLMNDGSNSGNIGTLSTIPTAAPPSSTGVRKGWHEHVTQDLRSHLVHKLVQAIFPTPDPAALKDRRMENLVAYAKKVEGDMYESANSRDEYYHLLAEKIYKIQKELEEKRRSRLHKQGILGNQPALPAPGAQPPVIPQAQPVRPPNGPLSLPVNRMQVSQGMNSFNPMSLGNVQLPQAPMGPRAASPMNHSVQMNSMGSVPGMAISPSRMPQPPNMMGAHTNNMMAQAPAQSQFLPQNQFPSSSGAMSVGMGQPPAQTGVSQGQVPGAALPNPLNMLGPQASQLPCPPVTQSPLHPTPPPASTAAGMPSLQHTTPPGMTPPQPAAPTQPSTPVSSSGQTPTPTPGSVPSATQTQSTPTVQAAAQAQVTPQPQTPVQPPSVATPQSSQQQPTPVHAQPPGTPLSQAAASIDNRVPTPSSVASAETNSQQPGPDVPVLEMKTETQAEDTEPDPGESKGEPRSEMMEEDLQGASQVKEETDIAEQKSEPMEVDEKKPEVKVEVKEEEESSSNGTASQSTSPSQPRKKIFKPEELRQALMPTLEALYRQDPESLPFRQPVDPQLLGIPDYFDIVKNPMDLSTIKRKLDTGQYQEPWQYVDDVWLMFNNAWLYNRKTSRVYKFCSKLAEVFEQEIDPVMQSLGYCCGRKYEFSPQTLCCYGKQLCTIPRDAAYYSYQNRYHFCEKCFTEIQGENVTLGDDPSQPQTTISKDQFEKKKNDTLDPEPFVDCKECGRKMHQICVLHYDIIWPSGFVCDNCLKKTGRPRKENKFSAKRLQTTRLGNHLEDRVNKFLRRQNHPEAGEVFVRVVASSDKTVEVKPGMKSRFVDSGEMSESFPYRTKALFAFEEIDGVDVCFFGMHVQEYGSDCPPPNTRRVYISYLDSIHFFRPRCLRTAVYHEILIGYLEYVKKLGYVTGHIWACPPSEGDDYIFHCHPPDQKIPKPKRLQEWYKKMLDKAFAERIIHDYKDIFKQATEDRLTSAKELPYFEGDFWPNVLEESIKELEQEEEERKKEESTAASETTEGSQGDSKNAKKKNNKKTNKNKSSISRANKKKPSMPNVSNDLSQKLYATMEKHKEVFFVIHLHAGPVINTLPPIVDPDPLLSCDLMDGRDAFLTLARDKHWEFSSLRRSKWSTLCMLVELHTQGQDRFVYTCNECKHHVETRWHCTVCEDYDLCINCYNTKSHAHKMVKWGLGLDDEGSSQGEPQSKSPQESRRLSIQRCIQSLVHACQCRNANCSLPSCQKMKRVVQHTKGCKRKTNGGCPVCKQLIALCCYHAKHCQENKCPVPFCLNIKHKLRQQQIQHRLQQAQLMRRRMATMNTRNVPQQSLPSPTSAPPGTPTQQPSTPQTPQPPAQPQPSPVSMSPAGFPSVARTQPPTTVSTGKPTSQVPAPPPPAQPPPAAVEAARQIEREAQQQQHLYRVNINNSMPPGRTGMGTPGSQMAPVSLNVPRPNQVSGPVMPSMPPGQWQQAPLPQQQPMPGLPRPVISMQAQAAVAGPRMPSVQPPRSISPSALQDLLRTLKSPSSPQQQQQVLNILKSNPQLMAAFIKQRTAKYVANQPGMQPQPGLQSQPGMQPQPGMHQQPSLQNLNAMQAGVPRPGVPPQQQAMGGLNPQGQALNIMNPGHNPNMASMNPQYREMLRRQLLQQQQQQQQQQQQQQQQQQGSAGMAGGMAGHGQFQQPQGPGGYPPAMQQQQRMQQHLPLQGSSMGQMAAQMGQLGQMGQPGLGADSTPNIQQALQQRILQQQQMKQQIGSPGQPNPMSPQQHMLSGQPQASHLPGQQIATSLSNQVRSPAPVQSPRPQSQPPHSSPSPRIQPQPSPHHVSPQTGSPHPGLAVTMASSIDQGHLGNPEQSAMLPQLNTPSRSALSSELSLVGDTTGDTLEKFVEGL

Assay [8] concerns the target T2, endogenous HDAC7 (human (endogenous in 293T)) (UniProt Q8WUI4).
T2 sequence: T1 sequence
The assay can be described thus: co-IP; endogenous proteins of 293T lysate; IP with anti-AGO2 or anti-HDAC7 antibody, normal IgG as negative control, Western blotting.

Assay [9] concerns the target endogenous AGO2 (human (endogenous in 293T)) (UniProt Q9UKV8). The assay can be described thus: co-IP; ectopically expressed HA-P300 with endogenous AGO2 (Figure S2B); RIPA buffer lysate; precipitating antibody not given.

These are yes or no findings as the source states them, for the method shown. Binding seen in cells or lysates may run through a third protein. Some results given as binding are weak or reduced against the parent protein; the word gives no strength. For some of these results: Sequences can lack the tags named with a protein.

“endogenous DICER (from UniProt Q9UPY3 1-1922) (enzyme)”: the binding entry in assay [1], in assay [2], in assay [3], in assay [4] and in [5] was “binds” throughout.
Take “HA-tagged CBP (cAMP response element-binding protein binding protein, printed as 'a cAMP response element-binding protein') (from UniProt Q92793 1-2442) (enzyme)”: the binding entry in assay [6] is reported as “binds”.
On to “Myc-tagged AGO2 (Argonaute2), wild type (from UniProt Q9UKV8 1-859)”, for which, in [7], the binding entry is on record as “binds”.
As for “endogenous AGO2 (from UniProt Q9UKV8 1-859)”, in [8], the binding entry is recorded as “binds”.
Regarding “HA-tagged P300 (E1A-binding protein) (from UniProt Q09472 1-2414) (enzyme)”, the binding entry in assay [9] and in assay [6] was “binds” throughout.

For the origin of these results see publication PMC6372475.
